In a protein production outcome set (Wang et al. 2014) one finds protein production data, which are given here for 14 sequences.

A short description of this series: label from the status in PepcDB records.
Turning to “MGTNKKLNSLYLASAALILFLILFSYTASAATTTCNVKGSNYQYWSDEQYPSIDLFGEEYVPLLEENDQIWEAHVDKLTRVVIDNESSYNLTGGESLDIGQGYSLQVKQIDVDGEKVWLEFYKDGQYVDDQILSTGSGDDTWNCTLDNIQGISDVVVLKAHVNQITQSATESVVQIDGIWLIDYENTTTLQIGDQLGNCTLSEIVNGTNESNLGSLVFEYVVTITDLGTLGGNYSNAEGINNKGQVVGTSQTDTGVEHAFLWQNGVMTDLETSGCDGYPKGINDNEQIVGFTFIEDDNAVHACLWENGVVTYLGVLPGGTESWPEGINNKGQVIGYSEGIGFEVHAFLWQNGTMTDIGPSDVEYSDARGINENGQVVGTSQDRYGPSRAFLWQNGVMTDLGTLGGSYSSARGINDKGQVVGVSQTDTGETHAFLWQNGVMIDLGTLGGSNSCAYGINNKRQIVGESETETGETHAFLWQNGVMTDFGTLSGISGSGAYEINENGQILGSNGTAVLWTITAPTNPVANFSASPTSGYAPLTVNFTDQSTGSPTSWNWDFGDGMNATDQNPTHTYSTAGNYTVTFTASNAAGNSTVTGIVSVTPPEDSEEIVSEIEVSDNRLREASPDTVYKSSSFIDVGSISGVGRYRDAIQFDLSEYNSDSQITNAVLSLYWYYPSGTTRPEDTVIEIYRPASAWNSSYVSWNKRDKNVAWTNEGGDWYDRNGVLQGSTPYATITIKGSSLPDNRYYELDVTDLVKEYVSGKYENTGLLIKARTESNNYIAFYSSDWTDENQKPKITVTEKEASLVTITGATDNRLREASPDSVYSDTSFIDVGSISGVGRYRDVMQFDLSECNSNSQVGNAVLSLYWYYPSGTTRPEDTVIEIYRPASAWNSSYVSWNKRDKNVAWTNEGGDWYDKNGVSQGSTPYATITIKGSSLPDNRYYELDVTDLVKEYVSGKYENTGLLIKARTENNNYIAFYSSDCGNESQVPKLSITKKTPVVTVNATVTDAMDNRLREASPSTVYQSSSFIDVGSINGVGRYRDVIRFDLSEYTGSVEVNNAALSLYWYYPSGTTRPEDTVIEIYRPASAWNSSYVSWNKKDKNVAWTNAGGDWYDRNGVLQGSTPYATMTIKGSSLPDNIYYELDVTELVKEYVSGKYENTGFLIKAHTESNNYIAFYSSDCGNESQVPKLQLVYS”, the protein production result is “failed”. The entry for “MIRPGQAQQEPSSLNRPDQHVTLRPAAKQDLPVFMRELQEAFAVAVIEEFGSSPSEPIPSDRDIQQSFDAPGAEVLHIVADGERVGGVVVRIDAATQHNSLDLFFIATHAHGRGLGTAAWRAIEQRYPQTKVWQTHTPYFERRNIHFYVNKCGFKIVEYYNARHPDPHEHELEHEPDGLPPDGGFFRFEKIC” is “failed”; for “MKKIKTAFALPLFWLLFKVSKDMHKIQVDGQAWCQWQHKNFTLWNMCSLFIGFKEFRNLFYYRIGYLHHLIEWIFPRMTNLYITTPRSDVDSGLIIQHGFATIISAKQIGKNCKIYQQVTIGYDHTLQAPIIGDNVEICCGAKVIGGVTIGNNVIIGANAVVIKDVPNNCIVAGVPAKIIKKILEHHHHHH” it is “failed”. For “MNKQRGTYSEVSLAQDPKRQQRKLKGNKISISGTKQEIFQVELNLQNASSDHQGNDKTYHCKGLLPPPEKLTAEVLGIICIVLMATVLKTIVLIPCIGVLEQNNFSLNRRMQKARHCGHCPEEWITYSNSCYYIGKERRTWEERVCWPVLRRTLICFL”, the protein production entry was “failed”. For the sequence “MNLEQALSGRLPIVYSDRFLDHDTGLGHPERPERLSATVTHLRSQPWSTALDWYLPTDLATRSPLPWIETCHSLHYIDSVQHLAERGGGSLDPDTPCSAASYEVALLAVNAWLDGIDRLLTRQSQAAFALTRPPGHHALATHGMGFCLFGNAAIAARYALAQGLTKVAIVDWDVHHGNGTQALVEQQPAIAYVSLHQSPAYPGTGSASETGFYENVRNLPLPPGSDGQDYRQCFETIVLPFLRAWQPQLLIVSAGYDAAAADPLANMRLQPADYGALTQQLRSLQIPILFGLEGGYDLPALSASVAATLAACLEPPSAPKQSG”, the protein production result was “failed”. The entry for “MPGKNSKKMIGACVVTAALLCAPSALKAEGMLSHYTCVADAIQKDNRPEPAKRLFRSQAVENEIIRVQKLLRNSKLAWMFTNCFPNTLDTTVHFRKGKDGKPDTFVYTGDIHAMWLRDSGAQVWPYVQLANSDPELKTMLAGVINRQFKCINIDPYANAFNDGPKGGEWMSDLTDMKPELHERKWEIDSLCYPLRLAYQYWKTTGDTSIFDEEWIQAITNILRTFKEQQRKDGVGPYKFQRKTERALDTVTNDGLGNPVKPVGLIVSTFRPSDDATTLQYLVPSNFFAVSSLRKAAEILTTVNKKTALANECKALANEVETALKKYAVYNHPKYGKIYAFEVDGFGNHMLMDDANVPSLLAMPYLGDVSIDDPIYQNTRRFVWSLDNPYFFKGKAGEGIGGPHIGYDMVWPMSIMMKAFTSKDDAEIKSCIEMLMNTDAGTGFMHESFHKDNPEKFTRAWFAWQNTLFGELILKLVNEGKVDMLNSIQLEHHHHHH” is “not failed”; for “MPSVQIGPPPASQSAIEAVRTVIITDEDLVKEKVCAICKEEFEVGEEGKELKCLHLYHSSCIVSWLNIHNTCPICRFEVNLGVSESNVDEGGSYNIDNDRSNRFRTRVCSLWPLRMMIDWVHNLIGKIPPPDIAFMAFLLCLYGF” it is “failed”. The entry for “MRLGTSAFSDAPPVELRANWSEEDLETVIRAVYRQVLGNDYVMASERLVSAESLLRNGKITVREFVRAVAKSELYKEKFLYGNFQTRVIELNYKHLLGRAPYDESEVIFHLDLYENEGFDADIDSYIDSPEYTNSFGDWVVPYYRGFNTQPGQKTVGFNRIFRLYRGYANSDRAQAEGSMSRLARDLATNRANTVVPPSNSDTAFAYYTPSADVPPRACLGGSFGESGRVYRIEVAGIRQPGYPGVRRSSTAFLVPYEQLSAKMQQLQRTGARIISVNPALEHHHHHH” is “failed”; for “MRQADSQTQPSPAEQEMPQPAGPSNSSPPTMGPQQTGSRKRKAAEVDQGAGTSSSPGPAAAMATVGAGNAEGSLMLTKRPRRPIAHLSMVNYLKGRALGADGHPGFAGFEGDLRSYGVLRLPELLRERQLTLGPLNKVFASQWLNARQVVCGTKCNTLFVVDVKTDHIMRIPLMRDRVPDLSRGPPSCGIHAVELNPSKTLLATGGENPNSLAVYQLPTLDPVCLGDCQGHRDWIFAIAWMSDTVAVSGSRDGTVALWKVDPDMFNGSIAWHKDAGLPVYAHISPTDMEAIPKATTNPGNRKVRALAFSNKNQELGAVSLDGYFHLWKARSSLSRLLSLRLPYCRENVCLTYCDEFSLYAVGSQSHVSFLDLRQGQQNIPPLCSREGGTGVRSLSVHQHIVTVGTGHGSLLFYDIRAQKFLEERSAANPDMFPVPSGRKLKLTCGSGWINQDDLLENYVAGVEDFPNALYTHCYNWPEMKLFVGGGPLASGLHGNYAGLWS” it is “failed”; for “MSFRDDNTEEGRNDLRRPFLHTGSWYRMGSRQSSMLESSQVIRDSSISVLACVLIVALGPIQFGFTCGYSSPTQAAITKDLGLTVSEYSVFGSLSNVGAMVGAIASGQIAEYVGRKGSLMIAAIPNIIGWLSISFAKDTSFLYMGRLLEGFGVGIISYTVPVYIAEIAPQTMRGALGSVNQLSVTIGIMLAYLLGLFVPWRILAVLGVLPCTLLIPGLFFIPESPRWLAKMGLTDDFETSLQVLRGFETDITVEVNEIKRSVASSSKRSAVRFVDLKRRRYYFPLMVGIGLLALQQLGGINGVLFYSSTIFESAGVTSSNVATFGVGVVQVVATGIATWLVDKAGRRLLLMISSIGMTISLVIVAVAFYLKEFVSPDSNMYNILSMVSVVGVVAMVISCSLGMGPIPWLIMSEILPVNIKGLAGSIATLLNWFVSWLVTMTANMLLAWSSGGTFTLYALVCGFTVVFVSLWVPETKGKTLEEIQALFR” it is “failed”. Consider “MSLKIQFDFPASFWTEALPIGNGNLGAMVFGKVEKERIALNEDTLWSGYPKDWNNPKAKEVLPKVRELIAQEKYEEADQLSRDMMGPYTQSYLPFGDLNIFMDHGQVVAPHYHRELDLSTGIVTVTYTIGGVQYTRELFVTYPDRAIVVRLTASKEGFLSFRAKLDSLLRHVSSVGAEHYTISGTAPEHVSPSYYDEENPVRYGHPDMSQGMTFHGRLAAVNEGGSLKVDADGLHVMGATCATLYFSASTSFDPSTGASCLERDPSLRTIETIKAICKRGYKEIVNRHLEDYAKLFNRVSLHLGESIAPADMSTDQRIKEYGSRDLGLVELLFQYGRYLMIASSRPGTQPANLQGIWNEETRAPWSSNYTLNINAEMNYWPAETCNLAELHKPLIHFIERLAANGKKTAEINYGARGWVAHHNADLWGQTAPVGDFGHGDPVWAFWPMGGVWLTQHLWEHYTFGEDEAYLRDTAYPIMKEAALFCLDWLIENEAGYLVTSPSTSPEQRFRIGEKGYAVSSATTMDLSLIAECFDNCIQAAKRLSIDEDFVKALSDAKQRLLPLQIGKRGQLQEWSNDFEDEDVHHRHVSHLVGIYPGRLITEQSAPNLFEAAKTSLEIRGDEGTGWSLGWKISLWARFKDGNRCERLLSNMLTLIKEDESMQHRGGVYANLFGAHPPFQIDGNFSATAGIAEMLLQSHQGYLEFLPALPDSWKDGYVKGLRGRGGYEVDLAWTNGALVKVEIVSTKTQTCEVLTRISMRITESGEEVEGDVLDSGRMSFQVEKGKRYVLNRTTDGEGHHHHHH”, for which the protein production entry is listed as “not failed”. The entry for “MSQAPKRKRPEDLRSHRWYGVKDLRAFGHRSRTAQMGYHRSDYAGKPVIAIINTWSDINPCHSHFKQRVEEVKRGIWQAGGFPVEMPAMSLSEPFQKPTTMLYRNLLAMETEELLRSYPADGCVLMGGCDKTTPALLMGAVSMGLPTVFVPAGPMLRGNWNGNTLGSGSDTWKYWAELRAGNITEEDWQGVEDGIARSPGHCMTMGTASTMTAAVEALGLCLSGYSSIPAPDSRHAQMASLTGKRIVEMVWEDLKPADILTAASFDNAVRTVLALSGSTNAVVHLIALARRAGFGLDLERFDHLARSTPVLANLRPAGQYLMEDFYYAGGLRALLAQLGDLLDTRQMTVDGRTLGENIAGARVFNDEVIRSRERALIERDGLAVLRGNLAPDGAVIKPAAMEARLQRHTGRAVVFKDYNDMAERIDAPDLDIDADSVIVLQNAGPQGAPGMPEWGQLPIPQKLLKQGVRDMVRISDARMSGTSYGACVLHVAPEAYVGGPLALVRSGDRIALDVPGRRIDVLISDEELAARKAAWQAPPPKFERGFGVLYLKHIGQADSGCDFDFLQTRPQQAAEGEPEIH” is “failed”; for “MSTEKTKLGVHSEAGKLRKVMVCSPGLAHQRLTPSNCDELLFDDVIWVNQAKRDHFDFVTKMRERGIDVLEMHNLLTETIQNPEALKWILDRKITADSVGLGLTSELRSWLESLEPRKLAEYLIGGVAADDLPASEGANILKMYREYLGHSSFLLPPLPNTQFTRDTTCWIYGGVTLNPMYWPARRQETLLTTAIYKFHPEFANAEFEIWYGDPDKDHGSSTLEGGDVMPIGNGVVLIGMGERSSRQAIGQVAQSLFAKGAAERVIVAGLPKSRAAMHLDTVFSFCDRDLVTVFPEVVKEIVPFSLRPDPSSPYGMNIRREEKTFLEVVAESLGLKKLRVVETGGNSFAAEREQWDDGNNVVCLEPGVVVGYDRNTYTNTLLRKAGVEVITISASELGRGRGGGHCMTCPIVRDPIDY” it is “not failed”. The entry for “RFTWSMKTTSSMDPSDMMREIRKVLDANNCDYEQRERFLLFCVHGDGHAENLVQWEMEVCKLPRLSLNGVRFKRISGTSIAFKNIASKIANELKL” is “not failed”.
